US9919941B2, “Multiple uses of amine salts for industrial water treatment” (AMSA, Inc., priority 2012, dated 2018)

What was measured:
[1] = copper corrosion inhibition, ASTM G31-72 coupon weight loss
Experimental: (§1) Corrosion inhibition studies of various compounds of Formula (I) were conducted according to ASTM method G31-72 (2004). The following is the general test method.
(§2) Aqueous solutions of the test compound (900 mL) were prepared with city water for mild steel corrosion studies or a dilute sea salt solution (1000 ppm in deionized water) for copper corrosion studies. The solutions were magnetically stirred at a constant rate in a 1 L beaker and three coupons of either mild steel or copper were suspended in each beaker. After 5 days (steel) or 7 days (copper), the coupons were removed and cleaned according to ASTM method G1-03. Average weight loss was determined for each set of three coupons and then converted to corrosion rate in terms of mils per year (mpy).
The first test of copper corrosion inhibition compared Compound A with Compound 13 (from Table 1), 2-hydroxypropane-1,2,3-tricarboxylic acid, and a commercial inhibitor, Na-TAI.

[2] = mild steel corrosion inhibition, ASTM G31-72 coupon weight loss
Experimental: as §1, §2
These tests compare the corrosion inhibition of compounds of Formula (I), namely from Table 1, in the first set of comparisons, Compound A with Compound 13, and Compound B with Compound 1, and with 2-hydroxypropane-1,2,3-tricarboxylic acid. Thus five samples were tested relative to a blank and a standard, (1-hydroxyethan-1,1-diyl)bis(phosphonic acid), after 5 days at 26 μM concentrations. […] Concentrations were 26 μM.
Additional mild steel corrosion tests were performed at 130 μM concentration of compounds of Formula (I) and comparative compounds for 5 days. The next test compared the corrosion inhibition of Compound 8 with 2,3-dihydroxybutanedioic acid and Compound B, and Compound 4 with (1-hydroxyethan-1,1-diyl)bis(phosphonic acid) and Compound B. Also included was Compound 1 for reference. Concentrations in this set were 130 μM.

[3] = 130 μM, Table 5 (blank 12.5 mpy)
[4] = 5 days, 130 μM, Table 4 (blank 24 mpy)

Row | Compound | Corrosion rate ([1]; 7 days, 17 μM, Table 6) | Corrosion rate [2, 3] | Corrosion rate ([2]; 5 days, 26 μM, Table 3) | Corrosion rate [2, 4] | Corrosion rate ([1]; 42 μM, Table 7)
1 | [Na+].c1ccc2[n-]nnc2c1 [Na-TAI, sodium salt of 1,2,3-triaza-1H-indene] | 0.5 mpy |  |  |  | 
2 | Salt of Oxyamine (II) and Trihydroxidooxidophosphorus salt (1:1 molar stoichiometry) [Compound 3] |  | 5.6 mpy |  |  | 
3 | CC(O)(P(=O)(O)O)P(=O)(O)O [(1-hydroxyethan-1,1-diyl)bis(phosphonic acid)] |  |  | 16 mpy | 9.3 mpy | 
4 | CC(=O)O.CCCCCCCCCCOCCCN [Compound B, ethanoic acid salt of aminopropyloxydecane] |  | 12.7 mpy | 24 mpy | 25 mpy | 1.0 mpy
5 | Salt of Oxyamine (II) and 2,3-Dihydroxybutanedioic acid salt (1:1 molar stoichiometry) [Compound 8] |  |  |  | 14 mpy | 
6 | O=C(O)CC(O)(CC(=O)O)C(=O)O [2-hydroxypropane-1,2,3-tricarboxylic acid] | 1.7 mpy |  | 22 mpy |  | 1.4 mpy
7 | CC(O)(P(=O)(O)O)P(=O)(O)O.CCCCCCCCCCOCCCN [Compound 4, Salt of Oxyamine (II) and (1-Hydroxyethan-1,1-diyl)bis(phosphonic acid) (1:1 Molar Stoichiometry)] |  |  |  | 7.7 mpy | 
8 | CCCCCCCCCCSCCN.Cl [Compound A, 2-(decylthio)ethanamine hydrochloride] | 1.0 mpy |  | 24 mpy |  | 
9 | O=P(O)(O)O [Trihydroxidooxidophosphorus] |  | 7.4 mpy |  |  | 
10 | CCCCCCCCCCOCCCN.O=C(O)CC(O)(CC(=O)O)C(=O)O [Compound 1, 2-hydroxypropane-1,2,3-tricarboxylic acid salt of aminopropyloxydecane] |  | 1.6 mpy | 10 mpy | 2.9 mpy | 0.70 mpy
11 | O=C(O)C(O)C(O)C(=O)O (stereo not shown) [2,3-Dihydroxybutanedioic acid] |  |  |  | 20 mpy | 
12 | O=C(O)C(=O)O [Ethanedioic acid] |  | 14.5 mpy |  |  | 
